The list shows a part of the results. Most values lie at the level of the controls, where differences are scatter.
What follows are targets tested with CN[C@@H]1C[C@H]2O[C@@](C)([C@@H]1OC)n1c3ccccc3c3c4c(c5c6ccccc6n2c5c31)C(=O)NC4 [staurosporine] (assay: log2 fold change of tryptic peptide abundance, ligand vs vehicle (limited proteolysis) (log2 ratio); higher = more trypsin-susceptible (destabilized)). Details: ligand concentration: 20 uM; sample: K562 cleared lysate; digestion: 4 min, 22 C (HT-PELSA RT4min, Orbitrap Astral).

By UniProt entry, the sequences of proteins in these tests, tags left out. Where a name states a change or a piece, a line headed by the entry shows the natural chain unless it says otherwise.
UniProt P06748, whole entry: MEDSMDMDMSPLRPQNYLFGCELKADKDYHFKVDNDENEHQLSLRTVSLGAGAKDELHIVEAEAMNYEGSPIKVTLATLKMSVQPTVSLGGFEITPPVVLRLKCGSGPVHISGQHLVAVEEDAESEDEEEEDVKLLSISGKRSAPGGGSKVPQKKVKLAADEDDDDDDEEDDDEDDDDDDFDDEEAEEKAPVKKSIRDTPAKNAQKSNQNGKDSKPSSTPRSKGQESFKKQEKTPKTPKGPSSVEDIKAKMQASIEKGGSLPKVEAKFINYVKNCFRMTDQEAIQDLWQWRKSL
UniProt P08195: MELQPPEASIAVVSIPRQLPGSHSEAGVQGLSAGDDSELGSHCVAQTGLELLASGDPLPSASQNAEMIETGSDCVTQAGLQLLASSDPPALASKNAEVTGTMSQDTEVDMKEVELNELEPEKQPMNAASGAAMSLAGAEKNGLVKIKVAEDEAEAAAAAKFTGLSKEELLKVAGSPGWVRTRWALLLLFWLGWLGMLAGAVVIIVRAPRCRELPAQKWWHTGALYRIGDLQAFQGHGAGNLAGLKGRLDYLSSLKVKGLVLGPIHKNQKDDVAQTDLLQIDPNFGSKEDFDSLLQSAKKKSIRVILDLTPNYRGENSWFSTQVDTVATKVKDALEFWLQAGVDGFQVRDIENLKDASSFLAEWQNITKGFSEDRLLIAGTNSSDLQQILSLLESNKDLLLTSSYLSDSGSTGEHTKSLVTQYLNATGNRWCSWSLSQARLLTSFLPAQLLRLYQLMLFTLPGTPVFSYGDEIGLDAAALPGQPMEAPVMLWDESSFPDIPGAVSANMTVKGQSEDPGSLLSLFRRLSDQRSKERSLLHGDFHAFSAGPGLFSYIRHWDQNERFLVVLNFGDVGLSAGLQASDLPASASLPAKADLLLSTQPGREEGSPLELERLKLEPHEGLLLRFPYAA
UniProt P0DMB2: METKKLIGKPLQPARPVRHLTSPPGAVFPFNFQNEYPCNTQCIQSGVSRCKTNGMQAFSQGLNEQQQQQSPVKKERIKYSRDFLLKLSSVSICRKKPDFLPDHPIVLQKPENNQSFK
UniProt P10155: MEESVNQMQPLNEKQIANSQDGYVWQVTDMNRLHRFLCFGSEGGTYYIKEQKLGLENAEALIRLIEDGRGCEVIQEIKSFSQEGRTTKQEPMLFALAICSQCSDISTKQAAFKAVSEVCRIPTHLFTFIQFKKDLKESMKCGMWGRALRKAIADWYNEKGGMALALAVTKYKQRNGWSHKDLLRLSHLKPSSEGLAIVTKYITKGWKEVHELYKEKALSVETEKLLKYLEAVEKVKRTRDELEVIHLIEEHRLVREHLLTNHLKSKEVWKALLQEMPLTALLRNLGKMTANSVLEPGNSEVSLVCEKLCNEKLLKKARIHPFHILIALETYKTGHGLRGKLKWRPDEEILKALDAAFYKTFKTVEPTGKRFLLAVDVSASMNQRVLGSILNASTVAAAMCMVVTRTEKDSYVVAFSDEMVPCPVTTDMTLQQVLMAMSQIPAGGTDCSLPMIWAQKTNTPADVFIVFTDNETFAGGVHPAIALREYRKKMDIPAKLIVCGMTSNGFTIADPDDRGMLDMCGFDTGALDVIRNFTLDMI
UniProt P09017: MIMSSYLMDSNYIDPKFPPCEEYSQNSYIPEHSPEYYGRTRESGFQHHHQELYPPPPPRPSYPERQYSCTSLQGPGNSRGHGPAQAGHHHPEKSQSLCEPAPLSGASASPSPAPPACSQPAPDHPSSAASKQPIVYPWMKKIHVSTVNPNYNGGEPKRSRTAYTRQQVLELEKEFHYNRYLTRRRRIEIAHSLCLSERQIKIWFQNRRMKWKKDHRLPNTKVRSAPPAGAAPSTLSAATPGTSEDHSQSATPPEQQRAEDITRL
UniProt P05937: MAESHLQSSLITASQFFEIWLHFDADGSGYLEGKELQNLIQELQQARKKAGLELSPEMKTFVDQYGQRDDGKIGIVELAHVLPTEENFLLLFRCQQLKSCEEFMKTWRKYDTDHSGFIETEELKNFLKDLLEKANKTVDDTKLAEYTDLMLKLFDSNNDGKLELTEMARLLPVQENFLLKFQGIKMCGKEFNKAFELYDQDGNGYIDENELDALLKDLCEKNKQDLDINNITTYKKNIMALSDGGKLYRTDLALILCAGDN
UniProt P10599: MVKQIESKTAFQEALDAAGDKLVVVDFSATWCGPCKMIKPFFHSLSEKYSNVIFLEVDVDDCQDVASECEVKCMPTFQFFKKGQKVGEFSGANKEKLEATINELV
UniProt P09234, whole entry: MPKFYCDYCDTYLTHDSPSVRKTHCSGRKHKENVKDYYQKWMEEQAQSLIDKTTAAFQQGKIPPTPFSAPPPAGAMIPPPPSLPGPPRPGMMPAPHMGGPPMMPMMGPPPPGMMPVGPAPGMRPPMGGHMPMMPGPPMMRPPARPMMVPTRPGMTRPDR
UniProt P09497: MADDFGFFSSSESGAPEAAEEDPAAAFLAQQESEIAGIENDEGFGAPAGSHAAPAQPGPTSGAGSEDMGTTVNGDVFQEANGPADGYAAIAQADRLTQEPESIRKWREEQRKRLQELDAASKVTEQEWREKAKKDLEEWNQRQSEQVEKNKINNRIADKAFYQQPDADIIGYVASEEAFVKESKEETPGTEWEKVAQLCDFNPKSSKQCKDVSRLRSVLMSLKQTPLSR
UniProt P0CAP2, whole entry: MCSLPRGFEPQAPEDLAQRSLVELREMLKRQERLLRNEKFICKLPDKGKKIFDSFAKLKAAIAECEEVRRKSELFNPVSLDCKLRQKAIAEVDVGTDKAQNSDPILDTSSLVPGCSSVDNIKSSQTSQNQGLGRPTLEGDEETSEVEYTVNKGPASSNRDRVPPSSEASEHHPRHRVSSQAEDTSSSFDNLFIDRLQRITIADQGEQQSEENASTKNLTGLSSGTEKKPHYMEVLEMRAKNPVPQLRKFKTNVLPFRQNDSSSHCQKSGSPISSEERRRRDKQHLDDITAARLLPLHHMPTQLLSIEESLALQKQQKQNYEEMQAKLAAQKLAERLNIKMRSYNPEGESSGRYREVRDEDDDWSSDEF
UniProt P08575: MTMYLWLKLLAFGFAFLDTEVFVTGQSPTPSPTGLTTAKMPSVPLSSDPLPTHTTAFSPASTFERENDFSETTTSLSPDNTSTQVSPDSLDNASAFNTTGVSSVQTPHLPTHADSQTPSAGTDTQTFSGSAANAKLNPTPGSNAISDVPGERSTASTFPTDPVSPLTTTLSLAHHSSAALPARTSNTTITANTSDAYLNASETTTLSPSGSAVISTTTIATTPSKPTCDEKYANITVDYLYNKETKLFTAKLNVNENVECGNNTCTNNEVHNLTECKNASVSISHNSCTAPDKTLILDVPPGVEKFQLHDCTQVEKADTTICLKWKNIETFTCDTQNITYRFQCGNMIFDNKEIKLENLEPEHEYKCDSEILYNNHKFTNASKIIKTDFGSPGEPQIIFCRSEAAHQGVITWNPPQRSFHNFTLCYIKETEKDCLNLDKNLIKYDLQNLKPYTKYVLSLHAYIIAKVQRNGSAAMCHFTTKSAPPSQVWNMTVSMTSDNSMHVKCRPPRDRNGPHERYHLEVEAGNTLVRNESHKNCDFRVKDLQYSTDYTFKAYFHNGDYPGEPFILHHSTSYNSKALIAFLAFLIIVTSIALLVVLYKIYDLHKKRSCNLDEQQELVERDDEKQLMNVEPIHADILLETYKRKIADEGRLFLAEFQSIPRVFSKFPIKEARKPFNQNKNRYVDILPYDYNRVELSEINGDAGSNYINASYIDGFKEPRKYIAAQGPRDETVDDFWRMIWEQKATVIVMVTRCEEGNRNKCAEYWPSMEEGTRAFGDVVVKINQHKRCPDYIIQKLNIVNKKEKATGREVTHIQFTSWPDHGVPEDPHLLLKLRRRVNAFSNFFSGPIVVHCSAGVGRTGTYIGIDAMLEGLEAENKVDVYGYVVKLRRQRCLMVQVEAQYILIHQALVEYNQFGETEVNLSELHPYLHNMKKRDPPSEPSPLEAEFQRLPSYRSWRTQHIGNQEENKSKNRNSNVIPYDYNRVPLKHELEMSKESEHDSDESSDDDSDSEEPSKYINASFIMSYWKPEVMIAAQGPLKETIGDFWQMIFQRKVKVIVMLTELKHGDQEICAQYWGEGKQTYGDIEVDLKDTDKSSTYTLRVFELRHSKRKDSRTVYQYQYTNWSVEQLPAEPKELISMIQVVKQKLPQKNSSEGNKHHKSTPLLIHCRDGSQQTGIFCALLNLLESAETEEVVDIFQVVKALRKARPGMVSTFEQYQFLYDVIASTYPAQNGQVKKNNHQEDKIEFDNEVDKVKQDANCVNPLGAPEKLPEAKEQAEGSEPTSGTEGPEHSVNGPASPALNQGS
UniProt P07741: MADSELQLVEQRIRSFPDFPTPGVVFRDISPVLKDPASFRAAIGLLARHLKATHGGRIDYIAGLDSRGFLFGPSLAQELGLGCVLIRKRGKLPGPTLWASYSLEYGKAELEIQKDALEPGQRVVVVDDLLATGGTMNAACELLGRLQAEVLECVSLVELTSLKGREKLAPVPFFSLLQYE
UniProt P13667: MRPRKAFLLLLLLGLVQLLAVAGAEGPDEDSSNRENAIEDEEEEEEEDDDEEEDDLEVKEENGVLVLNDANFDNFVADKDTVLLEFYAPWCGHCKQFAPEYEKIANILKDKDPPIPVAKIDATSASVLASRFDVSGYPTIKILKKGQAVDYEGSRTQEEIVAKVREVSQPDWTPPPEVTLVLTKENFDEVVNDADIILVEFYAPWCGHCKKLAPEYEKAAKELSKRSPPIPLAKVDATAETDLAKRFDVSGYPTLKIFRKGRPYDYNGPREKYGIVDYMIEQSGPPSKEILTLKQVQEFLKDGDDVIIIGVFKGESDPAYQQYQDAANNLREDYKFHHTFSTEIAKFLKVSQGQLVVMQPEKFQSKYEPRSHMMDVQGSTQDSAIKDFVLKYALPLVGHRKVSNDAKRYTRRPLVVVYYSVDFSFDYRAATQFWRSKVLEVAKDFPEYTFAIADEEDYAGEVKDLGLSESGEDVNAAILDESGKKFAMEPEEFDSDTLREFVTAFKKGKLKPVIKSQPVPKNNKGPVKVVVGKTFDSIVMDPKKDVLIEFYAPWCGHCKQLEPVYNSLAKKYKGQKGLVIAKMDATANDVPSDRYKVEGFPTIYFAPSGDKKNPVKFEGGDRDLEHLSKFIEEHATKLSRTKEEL
UniProt P04733: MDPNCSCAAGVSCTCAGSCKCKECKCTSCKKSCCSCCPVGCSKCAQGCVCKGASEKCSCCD
UniProt P13378: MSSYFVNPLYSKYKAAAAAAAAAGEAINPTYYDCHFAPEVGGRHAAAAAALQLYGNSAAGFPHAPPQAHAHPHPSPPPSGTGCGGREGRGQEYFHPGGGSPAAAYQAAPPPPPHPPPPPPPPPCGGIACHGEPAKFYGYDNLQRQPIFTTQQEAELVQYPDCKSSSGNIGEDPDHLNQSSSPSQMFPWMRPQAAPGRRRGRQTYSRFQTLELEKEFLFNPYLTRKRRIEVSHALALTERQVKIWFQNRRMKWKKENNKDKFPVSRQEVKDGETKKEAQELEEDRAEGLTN
UniProt P0DJJ0, whole entry: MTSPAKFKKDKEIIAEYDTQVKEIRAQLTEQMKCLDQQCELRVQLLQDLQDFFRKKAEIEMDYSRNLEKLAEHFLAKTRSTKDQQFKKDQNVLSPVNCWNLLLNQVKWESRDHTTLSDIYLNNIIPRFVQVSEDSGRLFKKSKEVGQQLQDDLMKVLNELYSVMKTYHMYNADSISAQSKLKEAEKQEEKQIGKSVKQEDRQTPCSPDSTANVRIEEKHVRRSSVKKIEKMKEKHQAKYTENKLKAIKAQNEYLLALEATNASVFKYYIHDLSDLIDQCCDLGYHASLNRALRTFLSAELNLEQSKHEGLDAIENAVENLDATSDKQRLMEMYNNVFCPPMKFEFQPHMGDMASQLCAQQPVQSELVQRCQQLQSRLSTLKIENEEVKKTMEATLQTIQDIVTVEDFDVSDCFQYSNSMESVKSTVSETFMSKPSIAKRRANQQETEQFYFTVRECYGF
UniProt P12757: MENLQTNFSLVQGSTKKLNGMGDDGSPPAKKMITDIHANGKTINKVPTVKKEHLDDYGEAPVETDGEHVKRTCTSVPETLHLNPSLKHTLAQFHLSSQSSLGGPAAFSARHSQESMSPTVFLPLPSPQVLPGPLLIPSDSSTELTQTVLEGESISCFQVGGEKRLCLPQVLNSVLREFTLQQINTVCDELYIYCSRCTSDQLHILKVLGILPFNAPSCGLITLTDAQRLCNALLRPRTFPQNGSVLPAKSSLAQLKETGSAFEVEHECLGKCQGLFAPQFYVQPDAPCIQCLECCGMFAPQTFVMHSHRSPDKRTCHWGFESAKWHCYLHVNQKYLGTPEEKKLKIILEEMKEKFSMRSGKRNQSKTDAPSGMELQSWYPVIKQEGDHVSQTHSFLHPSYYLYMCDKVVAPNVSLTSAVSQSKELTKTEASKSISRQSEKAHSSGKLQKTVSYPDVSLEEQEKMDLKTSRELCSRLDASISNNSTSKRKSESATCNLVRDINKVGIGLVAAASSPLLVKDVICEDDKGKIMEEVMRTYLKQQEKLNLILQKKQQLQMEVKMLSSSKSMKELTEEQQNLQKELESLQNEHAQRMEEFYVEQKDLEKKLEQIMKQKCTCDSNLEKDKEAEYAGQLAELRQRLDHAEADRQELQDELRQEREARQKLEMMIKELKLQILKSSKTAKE

Target | log2 fold change
NPM1 (peptide sequence: TPKGPSSVEDIK, peptide start residue: 237) (UniProt P06748) | 0.805
RPLP0 (peptide sequence: GKAVVLMGK, peptide start residue: 49) (UniProt P05388) | 0.235
SLC3A2 (peptide sequence: LKLEPHEGLLLR, peptide start residue: 614) (UniProt P08195) | 0.321
DBI (peptide sequence: TKPSDEEMLFIYGHYK, peptide start residue: 18) (UniProt P07108) | 0.0038
CYC1 (peptide sequence: LFDYFPKPYPNSEAAR, peptide start residue: 171) (UniProt P08574) | -0.216
ACADM (peptide sequence: MWITNGGK, peptide start residue: 190) (UniProt P11310) | 0.202
UniProt P00746 (peptide sequence: ATLGPAVRPLPWQR, peptide start residue: 124) | 0.339
C8orf88 (peptide sequence: LIGKPLQPARPVR, peptide start residue: 6) (UniProt P0DMB2) | 0.104
HSP90AA1 (peptide sequence: LGIHEDSQNR, peptide start residue: 447) (UniProt P07900) | 0.287
UniProt P10155 (peptide sequence: IPTHLFTFIQFK, peptide start residue: 121) | 0.559
UniProt P09017 (peptide sequence: QQVLELEKEFHYNR, peptide start residue: 172) | -0.467
CLTA (peptide sequence: SVLISLKQAPLVH, peptide start residue: 236) (UniProt P09496) | 0.951
ALDOA (peptide sequence: AAQEEYVKR, peptide start residue: 323) (UniProt P04075) | 0.175
FDX1 (peptide sequence: QSIDVGKTS, peptide start residue: 176) (UniProt P10109) | 0.118
HMBS (peptide sequence: HLEGGCSVPVAVHTAMK, peptide start residue: 256) (UniProt P08397) | 0.0939
TPM2 (peptide sequence: LEEAEKAADESER, peptide start residue: 77) (UniProt P07951) | -0.0836
CALB1 (peptide sequence: TFVDQYGQRDDGK, peptide start residue: 60) (UniProt P05937) | 0.527
SLC2A1 (peptide sequence: TFDEIASGFR, peptide start residue: 459) (UniProt P11166) | -0.581
TXN (peptide sequence: VGEFSGANKEK, peptide start residue: 86) (UniProt P10599) | 0.542
SNRPC (peptide sequence: TTAAFQQGK, peptide start residue: 53) (UniProt P09234) | -0.155

Target | log2 fold change
COL1A2 (peptide sequence: GPAGPSGPAGK, peptide start residue: 1054) (UniProt P08123) | -0.147
CSTB (peptide sequence: AKHDELTYF, peptide start residue: 90) (UniProt P04080) | -0.335
CLTB (peptide sequence: DLEEWNQR, peptide start residue: 135) (UniProt P09497) | -0.143
POLR2M (peptide sequence: AKNPVPQLR, peptide start residue: 239) (UniProt P0CAP2) | 0.324
PTPRC (peptide sequence: NNHQEDKIEFDNEVDKVK, peptide start residue: 1239) (UniProt P08575) | -0.413
APRT (peptide sequence: GKLPGPTLWASYSLEYGK, peptide start residue: 90) (UniProt P07741) | 0.482
HMGN1 (peptide sequence: TEESPASDEAGEKEAK, peptide start residue: 83) (UniProt P05114) | -0.304
PDIA4 (peptide sequence: SKVLEVAK, peptide start residue: 436) (UniProt P13667) | 0.593
UniProt P04733 (peptide sequence: CAQGCVCK, peptide start residue: 44) | 0.135
GSR (peptide sequence: TYSTSFTPMYHAVTK, peptide start residue: 442) (UniProt P00390) | -0.48
UniProt P13378 (peptide sequence: EFLFNPYLTR, peptide start residue: 164) | -0.501
UniProt P0DJJ0 (peptide sequence: STVSETFMSKPSIAKR, peptide start residue: 424) | 0.49
SKIL (peptide sequence: YLGTPEEK, peptide start residue: 335) (UniProt P12757) | -0.238
PYGB (peptide sequence: GLAGLGDVAEVRK, peptide start residue: 18) (UniProt P11216) | 0.172
UniProt P09630 (peptide sequence: YQTLELEK, peptide start residue: 195) | -0.142
HMGN2 (peptide sequence: EGNNPAENGDAKTDQAQK, peptide start residue: 65) (UniProt P05204) | -0.162
NR3C1 (peptide sequence: VSASSPSLAVASQSDSK, peptide start residue: 41) (UniProt P04150) | -0.317
ESD (peptide sequence: AYDATHLVK, peptide start residue: 201) (UniProt P10768) | 0.0737
GSN (peptide sequence: TPSAAYLWVGTGASEAEK, peptide start residue: 598) (UniProt P06396) | -0.499

No new results follow: an excerpt of the list.
Target | log2 fold change
FDX1 (peptide sequence: QSIDVGKTS, peptide start residue: 176) (UniProt P10109) | 0.118
HMBS (peptide sequence: HLEGGCSVPVAVHTAMK, peptide start residue: 256) (UniProt P08397) | 0.0939
TPM2 (peptide sequence: LEEAEKAADESER, peptide start residue: 77) (UniProt P07951) | -0.0836
CALB1 (peptide sequence: TFVDQYGQRDDGK, peptide start residue: 60) (UniProt P05937) | 0.527
SLC2A1 (peptide sequence: TFDEIASGFR, peptide start residue: 459) (UniProt P11166) | -0.581
TXN (peptide sequence: VGEFSGANKEK, peptide start residue: 86) (UniProt P10599) | 0.542
SNRPC (peptide sequence: TTAAFQQGK, peptide start residue: 53) (UniProt P09234) | -0.155
COL1A2 (peptide sequence: GPAGPSGPAGK, peptide start residue: 1054) (UniProt P08123) | -0.147
CSTB (peptide sequence: AKHDELTYF, peptide start residue: 90) (UniProt P04080) | -0.335
CLTB (peptide sequence: DLEEWNQR, peptide start residue: 135) (UniProt P09497) | -0.143
POLR2M (peptide sequence: AKNPVPQLR, peptide start residue: 239) (UniProt P0CAP2) | 0.324
